From patent US20080199846A1, “Poultry semen extender” (priority 2007, published 2008)

Tested on: turkey sperm
Experiment: Phosphatidylcholine uptake by turkey sperm during 24 h in vitro storage (NBD-PC, flow cytometry)
Assay type: cell-based
Conditions: for percentage of unlabeled sperm: within the first 15 min of storage at 4° C.; for increase in MnFI: viable sperm

Substance: NBD (fluorochrome)-phosphatidycholine [NBD-labeled PC]
- percentage of unlabeled sperm (0.5 mg NBD-PC): 4.3%±0.2
- percentage of unlabeled sperm (2.5 mg NBD-PC): 2.1%±0.3
- percentage of unlabeled sperm (10 mg NBD-PC): 0.1%±0.02
- increase in MnFI (2.5 h of storage, 2.5 mg PC): 2 fold
- increase in MnFI (2.5 h of storage, 10 mg PC): 2 fold
- increase in MnFI (3 h of storage, 5 mg PC): 2 fold
- increase in MnFI (4 h of storage, 2.5 mg PC): 3 fold
- increase in MnFI (6 h of storage, 0.5 mg PC): 3 fold
- increase in MnFI (6 h of storage, 10 mg PC): 3 fold
- increase in MnFI (8 h of storage, 2.5 mg PC): 4 fold
- increase in MnFI (12 h of storage, 0.5 mg PC): 4 fold
- increase in MnFI (12 h of storage, 10 mg PC): 4 fold
- increase in MnFI (24 h of storage, 0.5 mg PC): 7.8 fold
- increase in MnFI (24 h of storage, 2.5 mg PC): 9.2 fold
- increase in MnFI (24 h of storage, 10 mg PC): 6.7 fold
- spermatozoa containing labeled PC (all other time-points of 24 h storage, including non-viable sperm): at least 98%
